Data published in patent US10730892B2, “Homoallylamines as formaldehyde-responsive triggers” (The Regents of the University of California, priority 2015, dated 2020).

System: HEK293T cells

C=CCC1NC2(c3ccc(C(=O)O)cc31)c1ccc(N(C)C)cc1[Si](C)(C)c1cc(N(C)C)ccc12 (stereo not drawn) [FAP-1]
cellular distribution after FA addition (1 mM FA, 30 min): not appreciably affected | cellular distribution: organelle-targeted dyes (ER-Tracker Green, BODIPY FL C5-Ceramide, LysoTracker Green DND-26, MitoTracker Green FM): showed overlap with endoplasmic reticulum-, Golgi apparatus-, lysosome-, and mitochondria-targeted dyes | cellular distribution: nucleus (Hoechst 33342): excluded from the nucleus
